These are yes or no findings as the source states them, for the method shown. Some entries that bind do so weakly or less than the wild type. For part of these data: Sequences can lack the tags named with a protein.
What was measured:
Human MSLN-His antigen [1] = target: T1, Human MSLN-His antigen (human, UniProt Q13421 296-580, limits assumed); assay: ELISA, plate coated with 2 ug/ml MSLN-His, VHH-Fc detected with anti-human IgG Fc HRP
T1 construct: also called MSLN-his protein; human MSLN protein; not shown: His tag

The chains behind the UniProt entries cited, without tags or fusion partners. Where a name states a change or a piece, a line headed by the entry shows the natural chain unless it says otherwise. A line that says so, or that is headed by a name, gives the form on record, which may keep a tag or linker.
Human MSLN-His antigen (Q13421, form named): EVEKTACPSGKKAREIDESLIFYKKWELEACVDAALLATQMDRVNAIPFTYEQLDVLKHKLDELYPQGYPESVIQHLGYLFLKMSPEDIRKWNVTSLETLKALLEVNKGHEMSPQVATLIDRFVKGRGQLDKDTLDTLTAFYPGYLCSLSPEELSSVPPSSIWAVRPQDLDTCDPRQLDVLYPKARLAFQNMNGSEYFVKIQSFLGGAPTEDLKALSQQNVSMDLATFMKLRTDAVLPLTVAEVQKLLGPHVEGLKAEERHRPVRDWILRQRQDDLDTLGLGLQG

Human MSLN-His antigen [2] = target: T1, Human MSLN-His antigen; assay: ELISA, plate coated with 2 ug/ml MSLN-His, VHH-Fc diluted 2.5-fold from 200 nM, anti-human IgG Fc HRP, OD450
Human MSLN-His antigen [3] = target: T1, Human MSLN-His antigen; assay: ForteBio biolayer interferometry, antibody loaded on AHC probes, human MSLN-His in solution 2-fold diluted from 100 nM, 180 s association, 360 s dissociation
Human MSLN-His antigen [4] = target: T1, Human MSLN-His antigen; assay: ELISA, plate coated with 2 ug/ml MSLN-His, antibody diluted 2.5-fold from 200 nM, anti-human IgG Fc HRP, OD450
Description: A high-absorption 384-well plate was coated with 2 μg/ml of MSLN-His […], and left standing at 4° C. overnight. The plate was washed three times with 1×PBST, and blocked with 5% of skimmed milk at room temperature for 2 h. During the blocking, the antibody MSLN-VHH was diluted 2.5-fold starting from a concentration of 200 nM for a total of 11 gradients. At the end of blocking, the plate was washed three times with 1×PT, into which were added corresponding diluted primary antibodies at 30 μl/well and incubated with shaking at room temperature for 1 h. The plate was washed three times with 1×PBST, into which were then added secondary antibodies Anti-human IgG Fc Antibody HRP (abcam, Item No. ab99759) and incubated at room temperature for 30-60 min. The plate was washed seven times with 1×PBST, into which was then added a TMB developer, and 2M phosphoric acid was added 3-5 min later to stop the reaction. The absorbance was read at a wavelength of 450 nm.

Human MSLN-His antigen [5] = target: T1, Human MSLN-His antigen; assay: BLI (ForteBio), AHC probe, human MSLN-His in solution
[6] = target: Human MSLN-His antigen (human) (UniProt Q13421); assay: ForteBio biolayer interferometry, antibody loaded on AHC probes, human MSLN-His in solution 2-fold diluted from 100 nM, 180 s association, 360 s dissociation
[7] = target: Human MSLN-His antigen (human) (UniProt Q13421); assay: ELISA, plate coated with 2 ug/ml MSLN-His, VHH-Fc detected with anti-human IgG Fc HRP
[8] = target: Human MSLN-His antigen (human) (UniProt Q13421); assay: ELISA, plate coated with 2 ug/ml MSLN-His, VHH-Fc diluted 2.5-fold from 200 nM, anti-human IgG Fc HRP, OD450

Binder | binding (Human MSLN-His antigen [1]) | binding (Human MSLN-His antigen [2]) | further results
MSLN50 VHH-Fc fusion protein (Fc fusion, Tested as bivalent VHH-Fc expressed in EXPI293; also called MSLN-VHH; MSLN nanobody 50; not shown: Fc of the VHH-Fc fusion) QVQLQESGGGLVQPGGSLRLSCAASGSISKIAIMGWYRQPPGNERELIAIANMTGTGVYRDTVKGRFTIRRDNAKNMVYLQMNNLKSEDTGVYYCHARQLGVGSFESWGQGTQVTVSS | binds | binds | 
positive control antibody P4 (antibody, V domains shown, an AHC probe was used in the ForteBio assay; also called positive antibody P4) VH: QVQLQQSGPGLVTPSQTLSLTCAISGDSVSSNSATWNWIRQSPSRGLEWLGRTYYRSKWYNDYAVSVKSRMSINPDTSKNQFSLQLNSVTPEDTAVYYCARGMMTYYYGMDVWGQGTTVTVSS VL: QPVLTQSSSLSASPGASASLTCTLRSGINVGPYRIYWYQQKPGSPPQYLLNYKSDSDKQQGSGVPSRFSGSKDASANAGVLLISGLRSEDEADYYCMIWHSSAAVFGGGTQLTVLS |  |  | binding (Human MSLN-His antigen [3]): binds; binding (Human MSLN-His antigen [4]): binds; binding (Human MSLN-His antigen [5]): binds
MSLN46 VHH-Fc fusion protein (Fc fusion, Tested as bivalent VHH-Fc expressed in EXPI293; also called MSLN-VHH; MSLN nanobody 46; not shown: Fc of the VHH-Fc fusion) QVQLQESGGGLVQAGGSLRLSCEASGHTDSYYPKAWFRQAPGKEREFVASIGWGGRMTAYADSVKGRFTVSRTYAKNTVYLQMNSLKPEDTAVYYCAAGIGWAPTADSGEYDYWGQGTQVTVSS | binds | binds | binding (Human MSLN-His antigen [3]): binds
MSLN52 VHH-Fc fusion protein (Fc fusion, Tested as bivalent VHH-Fc expressed in EXPI293; also called MSLN-VHH; MSLN nanobody 52; not shown: Fc of the VHH-Fc fusion) QVQLQESGGGLVQAGGSLSLSCAASGHTDSYYPKAWFRQAPGKEREFVASIGWGGRMTAYADSVKGRFTVSRTYAKNTVYLQMNSLKPEDTAVYYCAAGIGWAPTADSGEYDYWGQGTQVTVSS |  |  | binding [6]: binds; binding [7]: binds; binding [8]: binds
MSLN53 VHH-Fc fusion protein (Fc fusion, Tested as bivalent VHH-Fc expressed in EXPI293; also called MLSN-53; MSLN-VHH; not shown: Fc of the VHH-Fc fusion) QVQLQESGGGLVQPGGSLTLSCEASGHTDSYYPKAWFRQAPGKEREFVASIGWGGRMTAYADSVKGRFTVSRTYAKNTVYLQMNSLKPEDTAVYYCAAGIGWAPTADSGEYDYWGQGTQVTVSS |  |  | binding [6]: binds; binding [7]: binds; binding [8]: binds
MSLN45 VHH-Fc fusion protein (Fc fusion, Tested as bivalent VHH-Fc expressed in EXPI293 and detected with anti-human IgG Fc; also called MSLN-VHH; MSLN nanobody 45; not shown: Fc of the VHH-Fc fusion) QVQLQESGGGLVQPGGSLRLSCAASGSIFSINAMGWYRQPPGKQRELVAATSWGGRTNYADSVEGRFTISRDNAKNTVYLQMNSLKPEDTAVYYCKLWDGSSWDIYWGQGTQVTVSS | binds | binds | 
MSLN55 VHH-Fc fusion protein (Fc fusion, Tested as bivalent VHH-Fc expressed in EXPI293; also called MSLN-VHH; MSLN nanobody 55; not shown: Fc of the VHH-Fc fusion) QVQLQESGGGLVQSGGSLKLSCAASGNIASINAMGWYRQPPGKQRELVAATSWGGRTNYADSVEGRFTISRDNAKNTVYLQMNSLKPEDTAVYYCKLWDGSSWDIYWGQGTQVTVSS | binds | binds | 
MSLN47 VHH-Fc fusion protein (Fc fusion, Tested as bivalent VHH-Fc expressed in EXPI293; also called MSLN-VHH; MSLN nanobody 47; not shown: Fc of the VHH-Fc fusion) QVQLQESGGGLVQAGGSLRLSCAASGSIFSINAMGWYRQPPGKQRELVAATSWGGRTNYADSVEGRFTISRDNAKNTVYLQMNSLKPEDTAVYYCKLWDGSSWDIYWGQGTQVTVSS | binds | binds | 
MSLN59 VHH-Fc fusion protein (Fc fusion, Tested as bivalent VHH-Fc expressed in EXPI293; also called MSLN-VHH; MSLN nanobody 59; not shown: Fc of the VHH-Fc fusion) QVQLQESGGGLVQPGGSLRLSCTASKRIDSINAMGWYRQPPGKQRELVAATSWGGRTNYADSVEGRFTISRDNAKNTVYLQMNSLKPEDTAVYYCKLWDGSSWDIYWGQGTQVTVSS | binds | binds | 
MSLN58 VHH-Fc fusion protein (Fc fusion, Tested as bivalent VHH-Fc expressed in EXPI293; also called MSLN-VHH; MSLN nanobody 58; not shown: Fc of the VHH-Fc fusion) QVQLQESGGGTVQPGGSLRLSCEAVGDSVSINAMGWYRQPPGKQRELVAATSWGGRTNYADSVEGRFTISRDNAKNTVYLQMNSLKPEDTAVYYCKLWDGSSWDIYWGQGTQVTVSS | binds | binds | 
MSLN48 VHH-Fc fusion protein (Fc fusion, Tested as bivalent VHH-Fc expressed in EXPI293; also called MSLN-VHH; MSLN nanobody 48; not shown: Fc of the VHH-Fc fusion) QVQLQESGGGLVQPGGSLRLSCAASESIFSNYSASWYRQAPGKQRELVATIARTGSAFHLGSVKGRFTISRDNAKRTVYLQMNSLLPEDTAVYYCNVWDSWGQGTQVTVSS | binds | binds | 

The next lines start with results.

binding (Human MSLN-His antigen [1]) | binding (Human MSLN-His antigen [2]) | Binder | further results
binds | binds | MSLN51 VHH-Fc fusion protein (Fc fusion, Tested as bivalent VHH-Fc expressed in EXPI293; also called MSLN-VHH; MSLN nanobody 51; not shown: Fc of the VHH-Fc fusion) QVQLQESGGGLVQTGGSLRLSCAASGSIFSINAMGWYRQPPGKQRELVAATSWGGRTNYADSVEGRFTISRDNAKNTVYLQMNSLKPEDTAVYYCKLWDGSSWDIYWGQGTQVTVSS | 
binds | binds | MSLN57 VHH-Fc fusion protein (Fc fusion, Tested as bivalent VHH-Fc expressed in EXPI293; also called MSLN-VHH; MSLN nanobody 57; not shown: Fc of the VHH-Fc fusion) QVQLQESGGGMVQPGGSLRLSCAASGSIFSINAMGWYRQPPGKQRELVAATSWGGRTNYADSVEGRFTISRDNAKNTVYLQMNSLKPEDTAVYYCKLWDGSSWDIYWGQGTQVTVSS | 
